Some entries share one result that the patent states for a list of compounds.
These compounds were tested against human NaV 1.8 (Homo sapiens, UniProt Q9Y5Y9) (assay: E-VIPR Assay Detecting and Measuring NaV Inhibition Properties). Details: HEK cells expressing a truncated form of human NaV 1.8 with full channel activity; electrical stimulation, membrane-potential FRET dyes; 30 minutes compound incubation; read-out: measured IC50 value in the E-VIPR Assay.
Format: cell-based

Protein sequences, listed by entry. Tags and fused reporters are not part of them. Residues count along the entry.
UniProt Q9Y5Y9, 126-1722 limits assumed: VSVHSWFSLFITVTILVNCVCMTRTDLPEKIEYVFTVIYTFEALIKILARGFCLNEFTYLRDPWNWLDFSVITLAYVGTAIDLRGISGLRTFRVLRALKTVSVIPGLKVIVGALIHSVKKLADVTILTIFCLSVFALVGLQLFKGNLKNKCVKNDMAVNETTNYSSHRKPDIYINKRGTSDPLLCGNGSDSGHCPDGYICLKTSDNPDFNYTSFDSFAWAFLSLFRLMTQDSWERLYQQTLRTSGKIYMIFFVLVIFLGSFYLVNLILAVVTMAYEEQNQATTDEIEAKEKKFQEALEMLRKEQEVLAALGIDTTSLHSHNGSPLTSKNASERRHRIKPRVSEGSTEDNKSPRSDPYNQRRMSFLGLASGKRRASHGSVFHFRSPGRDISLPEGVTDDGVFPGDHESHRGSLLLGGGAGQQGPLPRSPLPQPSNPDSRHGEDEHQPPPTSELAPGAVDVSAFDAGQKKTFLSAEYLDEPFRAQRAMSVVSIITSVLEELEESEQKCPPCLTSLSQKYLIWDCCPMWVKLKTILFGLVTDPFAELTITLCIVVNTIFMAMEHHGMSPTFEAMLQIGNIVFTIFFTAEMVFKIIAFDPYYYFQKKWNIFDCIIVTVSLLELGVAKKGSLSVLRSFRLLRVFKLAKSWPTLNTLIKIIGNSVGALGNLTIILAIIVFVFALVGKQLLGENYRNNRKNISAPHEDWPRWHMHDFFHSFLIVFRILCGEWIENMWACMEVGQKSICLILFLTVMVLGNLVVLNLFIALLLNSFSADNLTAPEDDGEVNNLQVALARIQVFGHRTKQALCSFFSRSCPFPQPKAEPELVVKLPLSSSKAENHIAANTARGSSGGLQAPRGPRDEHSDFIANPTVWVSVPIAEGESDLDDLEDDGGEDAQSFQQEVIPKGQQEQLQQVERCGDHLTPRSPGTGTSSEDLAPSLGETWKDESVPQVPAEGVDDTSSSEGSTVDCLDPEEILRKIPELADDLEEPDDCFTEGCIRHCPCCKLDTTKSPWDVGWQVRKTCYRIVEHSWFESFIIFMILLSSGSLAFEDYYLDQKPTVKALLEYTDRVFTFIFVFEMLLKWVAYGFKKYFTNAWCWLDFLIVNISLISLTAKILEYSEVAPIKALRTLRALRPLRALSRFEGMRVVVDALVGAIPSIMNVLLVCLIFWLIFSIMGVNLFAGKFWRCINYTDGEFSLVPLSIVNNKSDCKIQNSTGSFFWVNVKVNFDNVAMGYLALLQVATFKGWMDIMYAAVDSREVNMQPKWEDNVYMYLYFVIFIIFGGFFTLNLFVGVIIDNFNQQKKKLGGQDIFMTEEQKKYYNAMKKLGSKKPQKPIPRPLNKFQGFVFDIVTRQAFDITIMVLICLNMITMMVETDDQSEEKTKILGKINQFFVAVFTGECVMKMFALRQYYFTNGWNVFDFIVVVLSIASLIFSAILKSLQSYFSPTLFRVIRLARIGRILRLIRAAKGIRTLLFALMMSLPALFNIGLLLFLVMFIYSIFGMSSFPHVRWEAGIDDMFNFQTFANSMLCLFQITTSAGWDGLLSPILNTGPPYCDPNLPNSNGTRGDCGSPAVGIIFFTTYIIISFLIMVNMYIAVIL

IC50, < 500 nM:
CCc1cc(=O)cc(-c2c(C)cc(C(C)(C)C)cc2Oc2ccc(F)cc2OC)[nH]1 [Compound 276, 2-[4-tert-butyl-2-(4-fluoro-2-methoxy-phenoxy)-6-methyl-phenyl]-6-ethyl-1H-pyridin-4-one]
CCOC(=O)C=Cc1c(-c2cc3ccccc3nc2Oc2ccc(F)c(F)c2C)[nH]c(C)cc1=O [Compound 277, ethyl 3-[2-[2-(3,4-difluoro-2-methyl-phenoxy)-3-quinolyl]-6-methyl-4-oxo-1H-pyridin-3-yl]prop-2-enoate]
CCOC(=O)CCc1c(-c2cc3ccccc3nc2Oc2ccc(F)c(F)c2C)[nH]c(C)cc1=O [Compound 278, ethyl 3-[2-[2-(3,4-difluoro-2-methyl-phenoxy)-3-quinolyl]-6-methyl-4-oxo-1H-pyridin-3-yl]propanoate]
COc1cc(F)ccc1Oc1cc(C(C)(C)C)cc(C)c1-c1cc(=O)c(C(=O)O)c(C)[nH]1 [Compound 279, 6-[4-tert-Butyl-2-(4-fluoro-2-methoxy-phenoxy)-6-methyl-phenyl]-2-methyl-4-oxo-1H-pyridine-3-carboxylic acid]
CCOC(=O)c1c(-c2cc3ccccc3nc2Oc2ccc(F)c(F)c2C)[nH]c(C)c(CC(=O)O)c1=O [Compound 281, 2-[6-[2-(3,4-difluoro-2-methyl-phenoxy)-3-quinolyl]-5-ethoxycarbonyl-2-methyl-4-oxo-1H-pyridin-3-yl]acetic acid]
CCOC(=O)c1c(-c2cc3ccccc3nc2N2CCCC(F)(F)CC2)[nH]c(C)c(CC(=O)O)c1=O [Compound 282, 2-[6-[2-(4,4-difluoroazepan-1-yl)-3-quinolyl]-5-ethoxycarbonyl-2-methyl-4-oxo-1H-pyridin-3-yl]acetic acid]
COc1c(Oc2cc(C(F)(F)F)c(F)cc2-c2[nH]c(C)cc(=O)c2C(=O)O)ccc(F)c1F [Compound 283, 2-[2-(3,4-difluoro-2-methoxy-phenoxy)-5-fluoro-4-(trifluoromethyl)phenyl]-6-methyl-4-oxo-1H-pyridine-3-carboxylic acid]
Cc1cc(-c2[nH]c(C)c(C)c(=O)c2C(N)=O)c(N2CCCC(F)(F)CC2)nc1C(F)(F)F [Compound 285, 2-[2-(4,4-difluoroazepan-1-yl)-5-methyl-6-(trifluoromethyl)-3-pyridyl]-5,6-dimethyl-4-oxo-1H-pyridine-3-carboxamide]
CCOC(=O)c1c(-c2cc3ccccc3nc2Oc2ccc(F)c(F)c2C)[nH]c(C)c(CC(N)=O)c1=O [Compound 286, ethyl 5-(2-amino-2-oxo-ethyl)-2-[2-(3,4-difluoro-2-methyl-phenoxy)-3-quinolyl]-6-methyl-4-oxo-1H-pyridine-3-carboxylate]
CCOC(=O)c1c(-c2cc3ccccc3nc2N2CCCC(F)(F)CC2)[nH]c(C)c(CC(N)=O)c1=O [Compound 287, ethyl 5-(2-amino-2-oxo-ethyl)-2-[2-(4,4-difluoroazepan-1-yl)-3-quinolyl]-6-methyl-4-oxo-1H-pyridine-3-carboxylate]
Cc1cc(-c2[nH]c(C)c(C)c(=O)c2C(=O)N(C)C)c(N2CCCC(F)(F)CC2)nc1C(F)(F)F [Compound 288, 2-[2-(4,4-difluoroazepan-1-yl)-5-methyl-6-(trifluoromethyl)-3-pyridyl]-N,N,5,6-tetramethyl-4-oxo-1H-pyridine-3-carboxamide]
CNC(=O)c1c(-c2cc(C)c(C(F)(F)F)nc2N2CCCC(F)(F)CC2)[nH]c(C)c(C)c1=O [Compound 290, 2-[2-(4,4-difluoroazepan-1-yl)-5-methyl-6-(trifluoromethyl)-3-pyridyl]-N,5,6-trimethyl-4-oxo-1H-pyridine-3-carboxamide]
COc1cc(F)ccc1Oc1cc(C(C)(C)C)cc(C)c1-c1cc(=O)c(C(N)=O)c(C)[nH]1 [Compound 291, 6-[4-tert-butyl-2-(4-fluoro-2-methoxy-phenoxy)-6-methyl-phenyl]-2-methyl-4-oxo-1H-pyridine-3-carboxamide]
CNC(=O)c1c(C)[nH]c(-c2c(C)cc(C(C)(C)C)cc2Oc2ccc(F)cc2OC)cc1=O [Compound 292, 6-[4-tert-butyl-2-(4-fluoro-2-methoxy-phenoxy)-6-methyl-phenyl]-N,2-dimethyl-4-oxo-1H-pyridine-3-carboxamide]
COC(=O)c1c(-c2c(Oc3ccc(F)c(F)c3C)ncc(C(F)(F)F)c2C)[nH]c(C)c(C)c1=O [Compound 293, methyl 2-[2-(3,4-difluoro-2-methyl-phenoxy)-4-methyl-5-(trifluoromethyl)-3-pyridyl]-5,6-dimethyl-4-oxo-1H-pyridine-3-carboxylate]
Cc1[nH]c(-c2c(Oc3ccc(F)c(F)c3C)ncc(C(F)(F)F)c2C)c(C(N)=O)c(=O)c1C [Compound 294, 2-[2-(3,4-difluoro-2-methyl-phenoxy)-4-methyl-5-(trifluoromethyl)-3-pyridyl]-5,6-dimethyl-4-oxo-1H-pyridine-3-carboxamide]
COC(=O)c1c(-c2cnc(C3CC(F)(F)C3)cc2C2CCC(C(F)(F)F)CC2)[nH]c(C)c(C)c1=O (centres unmarked) [Compound 295, methyl 2-[6-(3,3-difluorocyclobutyl)-4-[4-(trifluoromethyl)cyclohexyl]-3-pyridyl]-5,6-dimethyl-4-oxo-1H-pyridine-3-carboxylate]
COC(=O)c1c(C)[nH]c(-c2cnc(C3CC(F)(F)C3)cc2C2CCC(C(F)(F)F)CC2)cc1=O (centres unmarked) [Compound 296, methyl 6-[6-(3,3-difluorocyclobutyl)-4-[4-(trifluoromethyl)cyclohexyl]-3-pyridyl]-2-methyl-4-oxo-1H-pyridine-3-carboxylate]
COC(=O)c1c(-c2cc(C(F)(F)F)cnc2N2CCCC(F)(F)CC2)[nH]c(C)c(C)c1=O [Compound 298, methyl 2-[2-(4,4-difluoroazepan-1-yl)-5-(trifluoromethyl)-3-pyridyl]-5,6-dimethyl-4-oxo-1H-pyridine-3-carboxylate]
COC(=O)c1c(-c2cc(C(F)(F)F)cnc2Oc2ccc(F)c(F)c2C)[nH]c(C)c(C)c1=O [Compound 299, methyl 2-[2-(3,4-difluoro-2-methyl-phenoxy)-5-(trifluoromethyl)-3-pyridyl]-5,6-dimethyl-4-oxo-1H-pyridine-3-carboxylate]
COC(=O)c1c(-c2cc(C)c(C(F)(F)F)nc2Oc2ccc(F)c(F)c2C)[nH]c(C)c(C)c1=O [Compound 300, methyl 2-[2-(3,4-difluoro-2-methyl-phenoxy)-5-methyl-6-(trifluoromethyl)-3-pyridyl]-5,6-dimethyl-4-oxo-1H-pyridine-3-carboxylate]
COC(=O)c1c(-c2cc(C(F)(F)F)ncc2Oc2ccc(F)c(F)c2OC)[nH]c(C)c(C)c1=O [Compound 301, methyl 2-[5-(3,4-difluoro-2-methoxy-phenoxy)-2-(trifluoromethyl)-4-pyridyl]-5,6-dimethyl-4-oxo-1H-pyridine-3-carboxylate]
COC(=O)c1c(-c2cc(F)c(C(F)(F)F)cc2Oc2ccc(F)c(F)c2OC)[nH]c(C)c(C)c1=O [Compound 302, methyl 2-[2-(3,4-difluoro-2-methoxy-phenoxy)-5-fluoro-4-(trifluoromethyl)phenyl]-5,6-dimethyl-4-oxo-1H-pyridine-3-carboxylate]

Source: patent US20250388543A1, “HETEROARYL COMPOUNDS FOR THE TREATMENT OF PAIN” (VERTEX PHARMACEUTICALS INCORPORATED, priority 2022, published 2025)
